Results taken from the supplement of paper PMC12823440, “Inhibitors supercharge kinase turnover through native proteolytic circuits” (Nature, 2025).
Where a name gives a salt, the structure may show the parent alone. This is one part of the list. Hit calls seldom repeat between salt and free forms of one compound.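 Kinases were expressed as nanoluciferase fusions in K562 cells and luminescence was read every 4 h between 2 and 18 h as percent of control, DMSO set to 100% and a positive control to 0%. A time point counts as decreased when the signal drops significantly (2 sigma). The hit call is the authors' own, does not follow from the count of time points alone, and its rule is not shown.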

Protein sequences, listed by entry. Tags and fused reporters are not part of them. Lines headed by an entry give the natural chain unless they say otherwise; changes in a name come on top.
UniProt P00519, whole entry: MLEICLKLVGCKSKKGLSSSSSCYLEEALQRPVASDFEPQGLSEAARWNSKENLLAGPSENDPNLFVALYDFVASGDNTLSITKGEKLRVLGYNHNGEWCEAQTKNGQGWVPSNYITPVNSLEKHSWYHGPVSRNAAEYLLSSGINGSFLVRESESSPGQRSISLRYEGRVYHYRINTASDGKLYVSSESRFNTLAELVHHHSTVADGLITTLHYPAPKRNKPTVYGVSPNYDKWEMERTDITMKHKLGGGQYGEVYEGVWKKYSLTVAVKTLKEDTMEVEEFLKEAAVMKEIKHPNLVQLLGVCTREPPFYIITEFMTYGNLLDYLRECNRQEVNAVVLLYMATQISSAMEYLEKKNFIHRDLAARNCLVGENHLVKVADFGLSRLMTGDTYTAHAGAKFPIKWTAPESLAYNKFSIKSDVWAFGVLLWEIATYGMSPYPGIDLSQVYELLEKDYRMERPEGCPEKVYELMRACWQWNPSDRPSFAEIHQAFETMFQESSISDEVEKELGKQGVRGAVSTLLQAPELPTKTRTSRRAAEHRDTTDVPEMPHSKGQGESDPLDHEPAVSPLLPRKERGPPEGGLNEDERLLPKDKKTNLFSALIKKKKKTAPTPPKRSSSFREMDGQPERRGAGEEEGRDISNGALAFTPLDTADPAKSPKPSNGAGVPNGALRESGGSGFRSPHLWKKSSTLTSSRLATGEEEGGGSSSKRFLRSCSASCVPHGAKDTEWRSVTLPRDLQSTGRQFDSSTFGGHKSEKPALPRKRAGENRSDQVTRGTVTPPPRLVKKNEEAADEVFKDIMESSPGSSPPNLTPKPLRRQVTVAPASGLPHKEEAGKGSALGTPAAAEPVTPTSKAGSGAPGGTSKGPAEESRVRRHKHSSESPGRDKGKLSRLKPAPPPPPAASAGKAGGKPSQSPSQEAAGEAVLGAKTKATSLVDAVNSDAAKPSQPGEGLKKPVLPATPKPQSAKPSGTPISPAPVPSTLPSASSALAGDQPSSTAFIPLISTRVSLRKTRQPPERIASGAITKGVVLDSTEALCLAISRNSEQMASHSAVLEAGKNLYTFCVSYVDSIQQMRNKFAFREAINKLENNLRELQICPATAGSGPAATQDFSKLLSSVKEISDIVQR
UniProt P31749: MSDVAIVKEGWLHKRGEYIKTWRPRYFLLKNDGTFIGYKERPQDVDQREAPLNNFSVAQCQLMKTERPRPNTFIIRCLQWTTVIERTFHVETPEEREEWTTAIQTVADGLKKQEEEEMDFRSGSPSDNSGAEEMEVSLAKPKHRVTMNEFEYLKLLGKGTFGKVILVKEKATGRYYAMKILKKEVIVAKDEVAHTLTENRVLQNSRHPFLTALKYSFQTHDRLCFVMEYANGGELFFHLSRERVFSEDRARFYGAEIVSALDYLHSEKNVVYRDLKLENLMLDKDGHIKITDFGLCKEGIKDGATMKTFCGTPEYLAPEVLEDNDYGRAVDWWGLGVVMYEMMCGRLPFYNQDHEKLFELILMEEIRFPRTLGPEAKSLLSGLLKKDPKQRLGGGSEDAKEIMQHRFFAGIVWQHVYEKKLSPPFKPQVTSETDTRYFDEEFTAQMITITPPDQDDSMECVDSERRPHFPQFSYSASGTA
UniProt Q9UM73: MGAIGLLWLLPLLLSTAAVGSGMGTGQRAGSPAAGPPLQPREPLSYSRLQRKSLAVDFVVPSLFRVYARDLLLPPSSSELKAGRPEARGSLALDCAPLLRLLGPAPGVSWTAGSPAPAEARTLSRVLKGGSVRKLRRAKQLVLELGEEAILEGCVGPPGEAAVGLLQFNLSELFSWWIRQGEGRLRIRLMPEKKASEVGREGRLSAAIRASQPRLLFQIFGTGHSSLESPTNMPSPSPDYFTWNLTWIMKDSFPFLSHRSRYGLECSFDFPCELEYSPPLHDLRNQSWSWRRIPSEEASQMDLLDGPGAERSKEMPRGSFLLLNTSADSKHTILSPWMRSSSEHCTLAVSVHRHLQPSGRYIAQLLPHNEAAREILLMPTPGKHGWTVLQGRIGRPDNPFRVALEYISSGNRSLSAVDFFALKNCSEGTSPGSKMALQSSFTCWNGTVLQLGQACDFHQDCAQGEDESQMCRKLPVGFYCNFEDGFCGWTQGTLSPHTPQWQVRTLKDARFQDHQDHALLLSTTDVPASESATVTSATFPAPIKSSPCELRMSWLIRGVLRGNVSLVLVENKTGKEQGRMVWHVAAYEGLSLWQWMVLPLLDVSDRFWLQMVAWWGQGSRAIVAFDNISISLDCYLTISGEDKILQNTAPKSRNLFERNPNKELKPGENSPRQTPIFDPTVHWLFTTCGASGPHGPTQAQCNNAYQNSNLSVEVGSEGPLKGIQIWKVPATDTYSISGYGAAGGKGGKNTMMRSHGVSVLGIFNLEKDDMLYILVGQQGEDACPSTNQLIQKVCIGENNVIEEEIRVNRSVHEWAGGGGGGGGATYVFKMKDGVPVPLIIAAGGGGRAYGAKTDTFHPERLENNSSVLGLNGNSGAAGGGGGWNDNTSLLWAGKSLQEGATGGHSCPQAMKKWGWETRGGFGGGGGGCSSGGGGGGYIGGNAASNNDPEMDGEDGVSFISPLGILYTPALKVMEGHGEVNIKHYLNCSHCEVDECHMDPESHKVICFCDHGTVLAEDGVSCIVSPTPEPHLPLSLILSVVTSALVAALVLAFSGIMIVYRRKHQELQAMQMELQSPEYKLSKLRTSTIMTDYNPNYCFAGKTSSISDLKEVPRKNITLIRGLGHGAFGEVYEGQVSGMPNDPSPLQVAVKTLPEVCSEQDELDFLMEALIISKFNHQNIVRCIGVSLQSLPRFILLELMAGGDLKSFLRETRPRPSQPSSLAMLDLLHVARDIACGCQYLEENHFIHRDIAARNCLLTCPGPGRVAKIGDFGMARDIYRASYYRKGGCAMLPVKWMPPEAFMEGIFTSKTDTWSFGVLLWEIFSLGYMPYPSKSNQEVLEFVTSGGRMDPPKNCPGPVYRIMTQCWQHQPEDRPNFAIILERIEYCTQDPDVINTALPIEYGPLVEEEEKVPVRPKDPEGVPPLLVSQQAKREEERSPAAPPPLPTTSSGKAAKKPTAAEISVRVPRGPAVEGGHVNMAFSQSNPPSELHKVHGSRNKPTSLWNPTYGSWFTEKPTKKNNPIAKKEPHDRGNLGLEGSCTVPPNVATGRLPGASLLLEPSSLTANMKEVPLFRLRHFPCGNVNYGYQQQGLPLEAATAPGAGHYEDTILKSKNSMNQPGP
UniProt P10398: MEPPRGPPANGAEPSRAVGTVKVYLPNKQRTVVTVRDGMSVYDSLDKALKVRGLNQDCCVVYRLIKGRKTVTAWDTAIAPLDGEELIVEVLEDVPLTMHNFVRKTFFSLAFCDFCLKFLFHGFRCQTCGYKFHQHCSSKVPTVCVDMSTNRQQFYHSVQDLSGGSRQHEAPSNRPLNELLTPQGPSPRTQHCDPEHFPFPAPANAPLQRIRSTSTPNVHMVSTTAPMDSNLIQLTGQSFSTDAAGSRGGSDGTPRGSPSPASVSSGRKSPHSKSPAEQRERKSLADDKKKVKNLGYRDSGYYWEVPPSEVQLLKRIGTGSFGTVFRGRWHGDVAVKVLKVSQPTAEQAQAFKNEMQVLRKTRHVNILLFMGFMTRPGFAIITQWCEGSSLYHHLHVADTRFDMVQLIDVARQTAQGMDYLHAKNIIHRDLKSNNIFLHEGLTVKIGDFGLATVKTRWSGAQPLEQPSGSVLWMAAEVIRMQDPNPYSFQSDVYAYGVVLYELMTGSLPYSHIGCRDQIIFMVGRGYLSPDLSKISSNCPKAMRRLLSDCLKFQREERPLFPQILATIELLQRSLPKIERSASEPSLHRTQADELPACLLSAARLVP
UniProt O14965: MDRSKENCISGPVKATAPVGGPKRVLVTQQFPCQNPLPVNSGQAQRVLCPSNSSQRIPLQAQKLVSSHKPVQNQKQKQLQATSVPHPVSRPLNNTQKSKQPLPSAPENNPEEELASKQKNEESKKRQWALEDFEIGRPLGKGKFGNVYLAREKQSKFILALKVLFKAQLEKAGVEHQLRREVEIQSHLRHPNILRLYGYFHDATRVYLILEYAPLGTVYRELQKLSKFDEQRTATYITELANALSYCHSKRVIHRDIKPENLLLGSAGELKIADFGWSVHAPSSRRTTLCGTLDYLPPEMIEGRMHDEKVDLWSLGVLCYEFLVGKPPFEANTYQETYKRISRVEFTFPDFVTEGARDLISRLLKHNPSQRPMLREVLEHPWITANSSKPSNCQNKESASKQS
UniProt Q96GD4, whole entry: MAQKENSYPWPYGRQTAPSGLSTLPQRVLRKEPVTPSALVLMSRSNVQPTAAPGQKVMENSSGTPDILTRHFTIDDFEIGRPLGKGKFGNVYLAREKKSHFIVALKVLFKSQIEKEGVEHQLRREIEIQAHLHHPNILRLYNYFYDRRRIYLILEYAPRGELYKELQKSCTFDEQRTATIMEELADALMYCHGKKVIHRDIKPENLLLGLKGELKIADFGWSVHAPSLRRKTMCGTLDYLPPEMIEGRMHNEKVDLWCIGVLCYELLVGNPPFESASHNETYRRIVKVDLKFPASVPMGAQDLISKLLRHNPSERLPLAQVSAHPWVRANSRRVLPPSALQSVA
UniProt P51451: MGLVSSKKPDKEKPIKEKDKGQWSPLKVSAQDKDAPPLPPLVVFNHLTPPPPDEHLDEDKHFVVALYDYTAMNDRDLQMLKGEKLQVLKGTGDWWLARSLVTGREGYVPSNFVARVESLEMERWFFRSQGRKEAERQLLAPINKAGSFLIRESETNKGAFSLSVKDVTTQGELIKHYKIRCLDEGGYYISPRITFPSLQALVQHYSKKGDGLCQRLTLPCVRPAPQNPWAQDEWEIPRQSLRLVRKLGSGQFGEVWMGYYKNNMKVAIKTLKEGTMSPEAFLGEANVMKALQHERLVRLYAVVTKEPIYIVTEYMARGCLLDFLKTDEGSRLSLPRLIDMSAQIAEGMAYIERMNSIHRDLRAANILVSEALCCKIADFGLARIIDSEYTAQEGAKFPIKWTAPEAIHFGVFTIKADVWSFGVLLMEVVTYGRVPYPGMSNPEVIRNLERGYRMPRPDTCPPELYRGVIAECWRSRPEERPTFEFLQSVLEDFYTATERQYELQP
UniProt P51813: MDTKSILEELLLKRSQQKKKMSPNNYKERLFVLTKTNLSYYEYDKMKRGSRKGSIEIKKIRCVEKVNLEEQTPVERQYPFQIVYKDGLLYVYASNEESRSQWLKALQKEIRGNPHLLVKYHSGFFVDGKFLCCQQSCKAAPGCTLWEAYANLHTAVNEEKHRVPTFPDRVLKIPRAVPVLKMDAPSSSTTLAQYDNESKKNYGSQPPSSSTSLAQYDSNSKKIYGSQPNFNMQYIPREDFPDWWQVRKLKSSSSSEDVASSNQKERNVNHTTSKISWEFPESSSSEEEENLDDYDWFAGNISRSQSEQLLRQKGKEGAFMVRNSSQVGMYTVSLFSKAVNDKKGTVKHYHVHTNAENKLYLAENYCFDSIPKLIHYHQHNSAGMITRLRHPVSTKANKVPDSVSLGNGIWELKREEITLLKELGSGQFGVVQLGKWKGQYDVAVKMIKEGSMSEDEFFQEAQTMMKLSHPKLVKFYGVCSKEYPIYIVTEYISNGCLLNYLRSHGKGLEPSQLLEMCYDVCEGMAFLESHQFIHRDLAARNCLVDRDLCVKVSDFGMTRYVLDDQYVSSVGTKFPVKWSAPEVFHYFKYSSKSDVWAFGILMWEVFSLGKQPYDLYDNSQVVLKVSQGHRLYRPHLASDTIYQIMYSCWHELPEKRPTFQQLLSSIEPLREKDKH
UniProt P15056, whole entry, looked up: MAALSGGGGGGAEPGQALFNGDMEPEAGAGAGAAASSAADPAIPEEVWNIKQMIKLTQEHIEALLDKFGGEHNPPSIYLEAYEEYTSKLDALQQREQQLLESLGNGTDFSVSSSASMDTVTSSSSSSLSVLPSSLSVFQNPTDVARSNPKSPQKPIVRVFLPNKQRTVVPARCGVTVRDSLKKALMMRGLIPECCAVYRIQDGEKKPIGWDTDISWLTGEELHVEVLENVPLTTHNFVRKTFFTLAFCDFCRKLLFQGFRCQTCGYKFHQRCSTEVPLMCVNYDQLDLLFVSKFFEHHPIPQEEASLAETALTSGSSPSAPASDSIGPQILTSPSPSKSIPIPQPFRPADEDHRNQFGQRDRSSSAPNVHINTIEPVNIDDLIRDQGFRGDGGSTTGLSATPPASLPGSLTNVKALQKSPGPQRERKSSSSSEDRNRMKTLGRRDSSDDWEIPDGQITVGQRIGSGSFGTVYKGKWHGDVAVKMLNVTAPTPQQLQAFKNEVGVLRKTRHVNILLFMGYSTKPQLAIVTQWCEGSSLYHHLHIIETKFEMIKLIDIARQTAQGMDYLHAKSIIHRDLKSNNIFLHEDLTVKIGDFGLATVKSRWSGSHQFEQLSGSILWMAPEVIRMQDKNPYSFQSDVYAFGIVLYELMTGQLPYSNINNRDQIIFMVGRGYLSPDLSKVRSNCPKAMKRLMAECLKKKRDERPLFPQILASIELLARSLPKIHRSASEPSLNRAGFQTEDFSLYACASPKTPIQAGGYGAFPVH

What was measured:
Experiment in all cases: kinase-Nluc reporter destabilization hit call (1 = scored as downregulated) (binary); higher = compound decreases kinase abundance
Details in all cases: K562; 2-18 h
ABL1 = ABL1 (UniProt P00519)
AKT1 = AKT1 (UniProt P31749)
ALK = ALK (UniProt Q9UM73)
ARAF = ARAF (UniProt P10398)
AURKA = AURKA (UniProt O14965)
AURKB = AURKB (UniProt Q96GD4)
AURKC = AURKC (UniProt Q9UQB9)
BLK = BLK (UniProt P51451)
BMX = BMX (UniProt P51813)
BRAF = BRAF (UniProt P15056)

SMILES: C=C[C@H]1[C@H](O[C@@H]2O[C@H](CO)[C@@H](O)[C@H](O)[C@H]2O)OC=C(C(=O)OC)[C@H]1CCOC(=O)c1cc(O)c(O)c(O)c1 [Cornuside] (10 µM)
- kinase-Nluc reporter destabilization hit call (ABL1): inactive: 0
- kinase-Nluc reporter destabilization hit call (AKT1): inactive: 0
- kinase-Nluc reporter destabilization hit call (ALK): inactive: 0
- kinase-Nluc reporter destabilization hit call (ARAF): inactive: 0
- kinase-Nluc reporter destabilization hit call (AURKA): inactive: 0
- kinase-Nluc reporter destabilization hit call (AURKB): inactive: 0
- kinase-Nluc reporter destabilization hit call (AURKC): inactive: 0
- kinase-Nluc reporter destabilization hit call (BLK): inactive: 0
- kinase-Nluc reporter destabilization hit call (BMX): inactive: 0
- kinase-Nluc reporter destabilization hit call (BRAF): inactive: 0

SMILES: CNC[C@@H](NC(=O)c1ccc(-c2nc([C@H]3CC[C@H](O)[C@@H](F)C3)cnc2N)cc1F)c1cc(F)cc(Br)c1 [Rineterkib] (10 µM)
- kinase-Nluc reporter destabilization hit call (ABL1): inactive: 0
- kinase-Nluc reporter destabilization hit call (AKT1): inactive: 0
- kinase-Nluc reporter destabilization hit call (ALK): inactive: 0
- kinase-Nluc reporter destabilization hit call (ARAF): inactive: 0
- kinase-Nluc reporter destabilization hit call (AURKA): inactive: 0
- kinase-Nluc reporter destabilization hit call (AURKB): inactive: 0
- kinase-Nluc reporter destabilization hit call (AURKC): inactive: 0
- kinase-Nluc reporter destabilization hit call (BLK): inactive: 0
- kinase-Nluc reporter destabilization hit call (BMX): inactive: 0
- kinase-Nluc reporter destabilization hit call (BRAF): inactive: 0

SMILES: Cc1cccc(Cn2nc(C)c3c(NC(=O)c4csc5c(N)ncnc45)cccc32)n1 (10 µM)
- kinase-Nluc reporter destabilization hit call (ABL1): inactive: 0
- kinase-Nluc reporter destabilization hit call (AKT1): inactive: 0
- kinase-Nluc reporter destabilization hit call (ALK): inactive: 0
- kinase-Nluc reporter destabilization hit call (ARAF): inactive: 0
- kinase-Nluc reporter destabilization hit call (AURKA): inactive: 0
- kinase-Nluc reporter destabilization hit call (AURKB): inactive: 0
- kinase-Nluc reporter destabilization hit call (AURKC): inactive: 0
- kinase-Nluc reporter destabilization hit call (BLK): inactive: 0
- kinase-Nluc reporter destabilization hit call (BMX): inactive: 0
- kinase-Nluc reporter destabilization hit call (BRAF): inactive: 0

SMILES: CCCC[C@H](CO)Nc1nc(NC)ncc1OC [Interferon receptor inducer-1] (10 µM)
- kinase-Nluc reporter destabilization hit call (ABL1): inactive: 0
- kinase-Nluc reporter destabilization hit call (AKT1): inactive: 0
- kinase-Nluc reporter destabilization hit call (ALK): inactive: 0
- kinase-Nluc reporter destabilization hit call (ARAF): inactive: 0
- kinase-Nluc reporter destabilization hit call (AURKA): inactive: 0
- kinase-Nluc reporter destabilization hit call (AURKB): inactive: 0
- kinase-Nluc reporter destabilization hit call (AURKC): inactive: 0
- kinase-Nluc reporter destabilization hit call (BLK): inactive: 0
- kinase-Nluc reporter destabilization hit call (BMX): inactive: 0
- kinase-Nluc reporter destabilization hit call (BRAF): inactive: 0

SMILES: CC(C)(C)S(=O)(=O)c1ccc2nccc(Nc3n[nH]c4ccc(F)cc34)c2c1 (10 µM)
- kinase-Nluc reporter destabilization hit call (ABL1): inactive: 0
- kinase-Nluc reporter destabilization hit call (AKT1): inactive: 0
- kinase-Nluc reporter destabilization hit call (ALK): inactive: 0
- kinase-Nluc reporter destabilization hit call (ARAF): inactive: 0
- kinase-Nluc reporter destabilization hit call (AURKA): inactive: 0
- kinase-Nluc reporter destabilization hit call (AURKB): inactive: 0
- kinase-Nluc reporter destabilization hit call (AURKC): inactive: 0
- kinase-Nluc reporter destabilization hit call (BLK): inactive: 0
- kinase-Nluc reporter destabilization hit call (BMX): inactive: 0
- kinase-Nluc reporter destabilization hit call (BRAF): inactive: 0

SMILES: O=C1NCCSc2c1sc1ccc(O)cc21 (2.5 µM)
- kinase-Nluc reporter destabilization hit call (ABL1): inactive: 0
- kinase-Nluc reporter destabilization hit call (AKT1): inactive: 0
- kinase-Nluc reporter destabilization hit call (ALK): inactive: 0
- kinase-Nluc reporter destabilization hit call (ARAF): inactive: 0
- kinase-Nluc reporter destabilization hit call (AURKA): inactive: 0
- kinase-Nluc reporter destabilization hit call (AURKB): inactive: 0
- kinase-Nluc reporter destabilization hit call (AURKC): inactive: 0
- kinase-Nluc reporter destabilization hit call (BLK): inactive: 0
- kinase-Nluc reporter destabilization hit call (BMX): inactive: 0
- kinase-Nluc reporter destabilization hit call (BRAF): inactive: 0

SMILES: COC[C@H]1Cn2cc(-c3nc(Nc4ccnn4C)ncc3C)nc2C(=O)N1Cc1ccc(F)c(F)c1 (10 µM)
- kinase-Nluc reporter destabilization hit call (ABL1): inactive: 0
- kinase-Nluc reporter destabilization hit call (AKT1): inactive: 0
- kinase-Nluc reporter destabilization hit call (ALK): inactive: 0
- kinase-Nluc reporter destabilization hit call (ARAF): inactive: 0
- kinase-Nluc reporter destabilization hit call (AURKA): inactive: 0
- kinase-Nluc reporter destabilization hit call (AURKB): inactive: 0
- kinase-Nluc reporter destabilization hit call (AURKC): inactive: 0
- kinase-Nluc reporter destabilization hit call (BLK): inactive: 0
- kinase-Nluc reporter destabilization hit call (BMX): inactive: 0
- kinase-Nluc reporter destabilization hit call (BRAF): inactive: 0

SMILES: COc1cccc(Nc2ncnn3ccc(CN4CC[C@@H](N)[C@H](O)C4)c23)c1 (2.5 µM)
- kinase-Nluc reporter destabilization hit call (ABL1): inactive: 0
- kinase-Nluc reporter destabilization hit call (AKT1): inactive: 0
- kinase-Nluc reporter destabilization hit call (ALK): inactive: 0
- kinase-Nluc reporter destabilization hit call (ARAF): inactive: 0
- kinase-Nluc reporter destabilization hit call (AURKA): inactive: 0
- kinase-Nluc reporter destabilization hit call (AURKB): inactive: 0
- kinase-Nluc reporter destabilization hit call (AURKC): inactive: 0
- kinase-Nluc reporter destabilization hit call (BLK): inactive: 0
- kinase-Nluc reporter destabilization hit call (BMX): inactive: 0
- kinase-Nluc reporter destabilization hit call (BRAF): inactive: 0

SMILES: O=C(Nc1nc2cccc(-c3ccc(CN4CCS(=O)(=O)CC4)cc3)n2n1)C1CC1 [Filgotinib] (2.5 µM)
- kinase-Nluc reporter destabilization hit call (ABL1): inactive: 0
- kinase-Nluc reporter destabilization hit call (AKT1): inactive: 0
- kinase-Nluc reporter destabilization hit call (ALK): inactive: 0
- kinase-Nluc reporter destabilization hit call (ARAF): inactive: 0
- kinase-Nluc reporter destabilization hit call (AURKA): inactive: 0
- kinase-Nluc reporter destabilization hit call (AURKB): inactive: 0
- kinase-Nluc reporter destabilization hit call (AURKC): inactive: 0
- kinase-Nluc reporter destabilization hit call (BLK): inactive: 0
- kinase-Nluc reporter destabilization hit call (BMX): inactive: 0
- kinase-Nluc reporter destabilization hit call (BRAF): inactive: 0

SMILES: Cc1nc(NC(=O)N2CCC[C@H]2C(N)=O)sc1-c1csc(C(C)(C)C)n1 (10 µM)
- kinase-Nluc reporter destabilization hit call (ABL1): inactive: 0
- kinase-Nluc reporter destabilization hit call (AKT1): inactive: 0
- kinase-Nluc reporter destabilization hit call (ALK): inactive: 0
- kinase-Nluc reporter destabilization hit call (ARAF): inactive: 0
- kinase-Nluc reporter destabilization hit call (AURKA): inactive: 0
- kinase-Nluc reporter destabilization hit call (AURKB): inactive: 0
- kinase-Nluc reporter destabilization hit call (AURKC): inactive: 0
- kinase-Nluc reporter destabilization hit call (BLK): inactive: 0
- kinase-Nluc reporter destabilization hit call (BMX): inactive: 0
- kinase-Nluc reporter destabilization hit call (BRAF): inactive: 0

SMILES: O=C(CCc1ccc2n1[B-](F)(F)[N+]1=C(c3ccc[nH]3)C=CC1=C2)ON1C(=O)CCC1=O [Py-BODIPY-NHS ester] (2.5 µM)
- kinase-Nluc reporter destabilization hit call (ABL1): inactive: 0
- kinase-Nluc reporter destabilization hit call (AKT1): inactive: 0
- kinase-Nluc reporter destabilization hit call (ALK): inactive: 0
- kinase-Nluc reporter destabilization hit call (ARAF): inactive: 0
- kinase-Nluc reporter destabilization hit call (AURKA): inactive: 0
- kinase-Nluc reporter destabilization hit call (AURKB): inactive: 0
- kinase-Nluc reporter destabilization hit call (AURKC): inactive: 0
- kinase-Nluc reporter destabilization hit call (BLK): inactive: 0
- kinase-Nluc reporter destabilization hit call (BMX): inactive: 0
- kinase-Nluc reporter destabilization hit call (BRAF): inactive: 0

SMILES: N#C/C(=C\c1ccc[nH]1)c1ccc(Cl)c(Cl)c1 (2.5 µM)
- kinase-Nluc reporter destabilization hit call (ABL1): inactive: 0
- kinase-Nluc reporter destabilization hit call (AKT1): inactive: 0
- kinase-Nluc reporter destabilization hit call (ALK): inactive: 0
- kinase-Nluc reporter destabilization hit call (ARAF): inactive: 0
- kinase-Nluc reporter destabilization hit call (AURKA): inactive: 0
- kinase-Nluc reporter destabilization hit call (AURKB): inactive: 0
- kinase-Nluc reporter destabilization hit call (AURKC): inactive: 0
- kinase-Nluc reporter destabilization hit call (BLK): inactive: 0
- kinase-Nluc reporter destabilization hit call (BMX): inactive: 0
- kinase-Nluc reporter destabilization hit call (BRAF): inactive: 0

SMILES: CNC(=O)Nc1cc(Oc2cncc(C)c2)c(-c2ccc(OCC(C)(C)O)nc2)cn1 (2.5 µM)
- kinase-Nluc reporter destabilization hit call (ABL1): active: 1
- kinase-Nluc reporter destabilization hit call (AKT1): inactive: 0
- kinase-Nluc reporter destabilization hit call (ALK): inactive: 0
- kinase-Nluc reporter destabilization hit call (ARAF): inactive: 0
- kinase-Nluc reporter destabilization hit call (AURKA): inactive: 0
- kinase-Nluc reporter destabilization hit call (AURKB): inactive: 0
- kinase-Nluc reporter destabilization hit call (AURKC): inactive: 0
- kinase-Nluc reporter destabilization hit call (BLK): inactive: 0
- kinase-Nluc reporter destabilization hit call (BMX): inactive: 0
- kinase-Nluc reporter destabilization hit call (BRAF): inactive: 0

SMILES: CN(c1ccc(C(F)(F)F)cc1)S(=O)(=O)c1ccc(C(=O)Nc2nc(-c3ccccn3)cs2)cc1 (2.5 µM)
- kinase-Nluc reporter destabilization hit call (ABL1): inactive: 0
- kinase-Nluc reporter destabilization hit call (AKT1): inactive: 0
- kinase-Nluc reporter destabilization hit call (ALK): inactive: 0
- kinase-Nluc reporter destabilization hit call (ARAF): inactive: 0
- kinase-Nluc reporter destabilization hit call (AURKA): inactive: 0
- kinase-Nluc reporter destabilization hit call (AURKB): inactive: 0
- kinase-Nluc reporter destabilization hit call (AURKC): inactive: 0
- kinase-Nluc reporter destabilization hit call (BLK): inactive: 0
- kinase-Nluc reporter destabilization hit call (BMX): inactive: 0
- kinase-Nluc reporter destabilization hit call (BRAF): inactive: 0

SMILES: COc1c(OCCCN2CCOCC2)ccc2c3n(c(=NC(=O)c4cnc(N)nc4)nc12)CCN3 [Copanlisib (dihydrochloride)] (10 µM)
- kinase-Nluc reporter destabilization hit call (ABL1): active: 1
- kinase-Nluc reporter destabilization hit call (AKT1): inactive: 0
- kinase-Nluc reporter destabilization hit call (ALK): inactive: 0
- kinase-Nluc reporter destabilization hit call (ARAF): inactive: 0
- kinase-Nluc reporter destabilization hit call (AURKA): active: 1
- kinase-Nluc reporter destabilization hit call (AURKB): inactive: 0
- kinase-Nluc reporter destabilization hit call (AURKC): inactive: 0
- kinase-Nluc reporter destabilization hit call (BLK): inactive: 0
- kinase-Nluc reporter destabilization hit call (BMX): inactive: 0
- kinase-Nluc reporter destabilization hit call (BRAF): inactive: 0

SMILES: C[C@H](Nc1ccc2c(c1)OCCn1cc(N3C(=O)OC[C@H]3C(F)F)nc1-2)C(N)=O (10 µM)
- kinase-Nluc reporter destabilization hit call (ABL1): inactive: 0
- kinase-Nluc reporter destabilization hit call (AKT1): inactive: 0
- kinase-Nluc reporter destabilization hit call (ALK): inactive: 0
- kinase-Nluc reporter destabilization hit call (ARAF): inactive: 0
- kinase-Nluc reporter destabilization hit call (AURKA): inactive: 0
- kinase-Nluc reporter destabilization hit call (AURKB): inactive: 0
- kinase-Nluc reporter destabilization hit call (AURKC): inactive: 0
- kinase-Nluc reporter destabilization hit call (BLK): inactive: 0
- kinase-Nluc reporter destabilization hit call (BMX): inactive: 0
- kinase-Nluc reporter destabilization hit call (BRAF): inactive: 0
